Reference: patent US20160201132A1, “GENE EXPRESSION BIOMARKERS OF LAQUINIMOD RESPONSIVENESS” (Teva Pharmaceutical Industries Ltd., priority 2013, published 2016)
Further values from the same series stand in other lists.

System: PBMC of RRMS patients
Assay: Gene expression microarray analysis (HG-U133A-2) of PBMC from RRMS patients treated with LAQ, ancillary study to ALLEGRO
Format: in vivo, human
Source text: The goal of this ancillary study was to characterize gene expression changes and corresponding biological mechanisms induced in PBMC of RRMS patients by LAQ treatment. According to ALLEGRO clinical trial inclusion criteria, 25 patients were randomly assigned to receive LAQ (n=13, age 38.8±2.3 years, female/male ratio: 8/5) or placebo (n=12, age 37.2±3.4 years, female/male ratio: 8/4).
Peripheral blood samples were obtained from RRMS patients at baseline before start of LAQ treatment or placebo, after 0, 1, 6 and 24 month of treatment (visit 0, 1, 6 and 7 according to ALLEGRO clinical trial protocol correspondently) for gene microarray analysis.
Briefly, 1) Peripheral blood mononuclear cells (PBMC) were obtained from RRMS patients that participated in ALLEGRO and were treated daily with 0.6 mg LAQ or placebo. PBMC were subjected for gene expression analysis (HU-133A-2-Affymatrix arrays) at baseline and at 1 and 6 months of LAQ treatment; 2) Data was analyzed by Partek Genomics Solution software. Most informative genes (MIGs) were defined as those that differentiated between groups with p<0.01. Gene functional annotation, enrichment and pathway analysis were performed by Ingenuity software. For each time point, genes that changed in placebo group were excluded from further analysis; and 3) Verification of LAQ related mechanism was performed by Western blot.
PBMC were extracted from 15 ml peripheral blood, separated by Ficoll-Hypaque gradient. Total RNA was extracted using both Trizol (Invitrogen, USA) and Phase-Lock-Gel columns (Eppendorf, Germany) including a DNase digestion step. RNA integrity was assessed by RNA Experion automated electrophoresis system (Bio-Rad Laboratories, Hercules, Calif.).
Probe synthesis using 3 μg total RNA, hybridization, detection, and scanning was performed according to the standard Affymetrix, Inc. USA protocols; cDNA was synthesized using the Two-Cycle cDNA Synthesis Kit (Affymetrix, Inc., USA), and in-vitro transcription performed with the GeneChip IVT Labeling Kit (Affymetrix, Inc., USA). The biotin-labeled IVT-RNA was hybridized to HG-U133A-2 arrays containing 18,400 gene transcripts, each corresponding to 14,500 well-annotated human genes, washed in a GeneChip Fluidics Station 450 (Hewlett Packard, USA, GeneArray-™ scanner G2500A) and scanned according to the manufacturer's protocol (Affymetrix, Inc., USA).
Data analysis was performed on Partek Genomics Solution software (www.partek.com; Partek Incorporated, St. Louis, Mo.). Expression values were computed from raw CEL files by applying the Robust Multi-Chip Average (RMA) background correction algorithm. RMA correction included: 1) values background correction; 2) quintile normalization; 3) log 2 transformation; and 4) median polish summarization. The ANOVA, Repeated Measures and correlation analysis implicated in Partek software ware applied to evaluate LAQ effects. Most informative genes MIGs were defined as those that differentiated between experimental groups with p<0.01. All p-values were calculated for False Discovery Rate (FDR) multiple test correction at p=0.05.
Additionally, significance of individual genes was tested by parametric T-test and non parametric Mann-Whitney test using Bootstrapping approach based on repeated permutations of the data with 5% FDR for multiple testing.
Gene functional annotation, enrichment, and pathway analyses to identify the leading biological pathways that operated under LAQ treatment were performed by Ingenuity Pathways Analysis software (www.ingenuity.com).
ANOVA analysis was used to compare PBMC gene expression after 1, 6 or 24 month of LAQ treatment with baseline gene expression.
For each time point inventors performed analysis source of variation in dataset. (FIG. 1). Age, gender and batch effects were considered as confounders regarding LAQ or Placebo related changes. For each time point genes associated with Placebo effect were evaluated and excluded from further analysis. […]

With `CCN(C(=O)c1c(O)c2c(Cl)cccc2n(C)c1=O)c1ccccc1` [LAQ, 5-chloro-N-ethyl-4-hydroxy-1-methyl-2-oxo-N-phenyl-1,2-dihydroquinoline-3-carboxamide] the “Fold-Change (4.0 vs. 0.0)” value (gene CA5A, after six months of LAQ) was −1.23, the “Fold-Change (4.0 vs. 0.0)” value (gene CACNB2, PBMC, six months of LAQ treatment) was −1.118 and the “Fold-Change (4.0 vs. 0.0)” value (gene CADM4, six months of treatment) was −1.1601. For the same molecule, the “Fold-Change (4.0 vs. 0.0)” value (gene CALB2, six months of treatment) was −1.146, the “Fold-Change (4.0 vs. 0.0)” value (gene CALCB, after six months of LAQ) was −1.133 and the “Fold-Change (4.0 vs. 0.0)” value (gene CALD1, after six months of LAQ) was −1.356. For the same molecule, the “Fold-Change (4.0 vs. 0.0)” value (gene CAMK1G) was −1.187, the “Fold-Change (4.0 vs. 0.0)” value (gene CAP2, after six months of LAQ) was −1.132 and the “Fold-Change (4.0 vs. 0.0)” value (gene CAPN6, six months of treatment) was −1.156. The “Fold-Change (4.0 vs. 0.0)” value (gene CAPN9, after six months of LAQ) was −1.136, the “Fold-Change (4.0 vs. 0.0)” value (gene CARD14) was −1.189 and the “Fold-Change (4.0 vs. 0.0)” value (gene CASP7, after six months of LAQ) was −1.251. The “Fold-Change (4.0 vs. 0.0)” value (gene CBL) was −1.189, the “Fold-Change (4.0 vs. 0.0)” value (gene CCDC81, after six months of LAQ) was −1.133 and the “Fold-Change (4.0 vs. 0.0)” value (gene CCL19, after six months of LAQ) was −1.127. The “Fold-Change (4.0 vs. 0.0)” value (gene CCT8L2, after six months of LAQ) was −1.245, the “Fold-Change (4.0 vs. 0.0)” value (gene CD80, after six months of LAQ) was −1.306 and the “Fold-Change (4.0 vs. 0.0)” value (gene CDC42EP4, after six months of LAQ) was −1.238. For the same molecule, the “Fold-Change (4.0 vs. 0.0)” value (gene CDC45L) was −1.195, the “Fold-Change (4.0 vs. 0.0)” value (gene CDH2, after six months of LAQ) was −1.128 and the “Fold-Change (4.0 vs. 0.0)” value (gene CDH11) was −1.189. For the same molecule, the “Fold-Change (4.0 vs. 0.0)” value (gene CDH16, after six months of LAQ) was −1.133, the “Fold-Change (4.0 vs. 0.0)” value (gene CDH20, six months of treatment) was −1.154 and the “Fold-Change (4.0 vs. 0.0)” value (gene CDH22, six months of treatment) was −1.148. For the same molecule, the “Fold-Change (4.0 vs. 0.0)” value (gene CDK6, after six months of LAQ) was −1.139, the “Fold-Change (4.0 vs. 0.0)” value (gene CDKL2) was −1.189 and the “Fold-Change (4.0 vs. 0.0)” value (gene CELA2A /// CELA2B, after six months of LAQ) was −1.138. The “Fold-Change (4.0 vs. 0.0)” value (gene CELA2A, six months of treatment) was −1.15, the “Fold-Change (4.0 vs. 0.0)” value (gene CFTR) was −1.185 and the “Fold-Change (4.0 vs. 0.0)” value (gene CFTR, PBMC, six months of LAQ treatment) was −1.0898. The “Fold-Change (4.0 vs. 0.0)” value (gene CHD5, after six months of LAQ) was −1.137, the “Fold-Change (4.0 vs. 0.0)” value (gene CHI3L1, after six months of LAQ) was −1.134 and the “Fold-Change (4.0 vs. 0.0)” value (gene CHN1, after six months of LAQ) was −1.2914. For the same molecule, the “Fold-Change (4.0 vs. 0.0)” value (gene CHP2, after six months of LAQ) was −1.13, the “Fold-Change (4.0 vs. 0.0)” value (gene CHRD, six months of treatment) was −1.152 and the “Fold-Change (4.0 vs. 0.0)” value (gene CHRNA3, after six months of LAQ) was −1.124. For the same molecule, the “Fold-Change (4.0 vs. 0.0)” value (gene CHRNA6, six months of treatment) was −1.158, the “Fold-Change (4.0 vs. 0.0)” value (gene CHST3) was −1.191 and the “Fold-Change (4.0 vs. 0.0)” value (gene CIB2, six months of treatment) was −1.158. The “Fold-Change (4.0 vs. 0.0)” value (gene CIDEA, after six months of LAQ) was −1.138, the “Fold-Change (4.0 vs. 0.0)” value (gene CLCF1, after six months of LAQ) was −1.2966 and the “Fold-Change (4.0 vs. 0.0)” value (gene CLCNKA /// CLCNKB, after six months of LAQ) was −1.132. For the same molecule, the “Fold-Change (4.0 vs. 0.0)” value (gene CLCNKB, after six months of LAQ) was −1.271, the “Fold-Change (4.0 vs. 0.0)” value (gene CLDN1, after six months of LAQ) was −1.124 and the “Fold-Change (4.0 vs. 0.0)” value (gene CLDN4) was −1.1878. The “Fold-Change (4.0 vs. 0.0)” value (gene CLDN18) was −1.1916, the “Fold-Change (4.0 vs. 0.0)” value (gene CLIC4, after six months of LAQ) was −1.24 and the “Fold-Change (4.0 vs. 0.0)” value (gene CLOCK, after six months of LAQ) was −1.141. For the same molecule, the “Fold-Change (4.0 vs. 0.0)” value (gene CLTA, PBMC, six months of LAQ treatment) was −1.099, the “Fold-Change (4.0 vs. 0.0)” value (gene CMA1, after six months of LAQ) was −1.245 and the “Fold-Change (4.0 vs. 0.0)” value (gene CNGB1, after six months of LAQ) was −1.136. For the same molecule, the “Fold-Change (4.0 vs. 0.0)” value (gene CNOT3, PBMC, six months of LAQ treatment) was −1.108, the “Fold-Change (4.0 vs. 0.0)” value (gene CNTD2, after six months of LAQ) was −1.229 and the “Fold-Change (4.0 vs. 0.0)” value (gene CNTF /// ZFP91 /// ZFP91-CNTF, after six months of LAQ) was −1.144. The “Fold-Change (4.0 vs. 0.0)” value (gene COBLL1, after six months of LAQ) was −1.346, the “Fold-Change (4.0 vs. 0.0)” value (gene COL1A1, after six months of LAQ) was −1.143 and the “Fold-Change (4.0 vs. 0.0)” value (gene COL4A1, PBMC, six months of LAQ treatment) was −1.116. The “Fold-Change (4.0 vs. 0.0)” value (gene COL4A3, after six months of LAQ) was −1.14, the “Fold-Change (4.0 vs. 0.0)” value (gene COL4A6, after six months of LAQ) was −1.135 and the “Fold-Change (4.0 vs. 0.0)” value (gene COL4A6, six months of treatment) was −1.157. For the same molecule, the “Fold-Change (4.0 vs. 0.0)” value (gene COL5A1, after six months of LAQ) was −1.138, the “Fold-Change (4.0 vs. 0.0)” value (gene COL6A1, PBMC, six months of LAQ treatment) was −1.115 and the “Fold-Change (4.0 vs. 0.0)” value (gene COL17A1, after six months of LAQ) was −1.139. For the same molecule, the “Fold-Change (4.0 vs. 0.0)” value (gene COMT, PBMC, six months of LAQ treatment) was −1.119, the “Fold-Change (4.0 vs. 0.0)” value (gene CPA1, after six months of LAQ) was −1.132 and the “Fold-Change (4.0 vs. 0.0)” value (gene CPB2, after six months of LAQ) was −1.133. For the same molecule, the “Fold-Change (4.0 vs. 0.0)” value (gene CPLX3 /// LMAN1L, six months of treatment) was −1.153, the “Fold-Change (4.0 vs. 0.0)” value (gene CPM, six months of treatment) was −1.145 and the “Fold-Change (4.0 vs. 0.0)” value (gene CPN2, after six months of LAQ) was −1.13. For the same molecule, the “Fold-Change (4.0 vs. 0.0)” value (gene CPT2, after six months of LAQ) was −1.32, the “Fold-Change (4.0 vs. 0.0)” value (gene CREB3L1, after six months of LAQ) was −1.225 and the “Fold-Change (4.0 vs. 0.0)” value (gene CRISP2, after six months of LAQ) was −1.137. The “Fold-Change (4.0 vs. 0.0)” value (gene CRMP1) was −1.188, the “Fold-Change (4.0 vs. 0.0)” value (gene CRYBB2, after six months of LAQ) was −1.273 and the “Fold-Change (4.0 vs. 0.0)” value (gene CSF1, after six months of LAQ) was −1.225. The “Fold-Change (4.0 vs. 0.0)” value (gene CSH1, after six months of LAQ) was −1.141, the “Fold-Change (4.0 vs. 0.0)” value (gene CSN2, after six months of LAQ) was −1.137 and the “Fold-Change (4.0 vs. 0.0)” value (gene CSPG5, after six months of LAQ) was −1.125. For the same molecule, the “Fold-Change (4.0 vs. 0.0)” value (gene CST6, after six months of LAQ) was −1.33, the “Fold-Change (4.0 vs. 0.0)” value (gene CST8, six months of treatment) was −1.156 and the “Fold-Change (4.0 vs. 0.0)” value (gene CTNNAL1, after six months of LAQ) was −1.408. The “Fold-Change (4.0 vs. 0.0)” value (gene CTRC, after six months of LAQ) was −1.228.
